{"sequences": {"note": "Chains of the proteins cited; added tags and fusions are not shown.", "UniProt P27540": "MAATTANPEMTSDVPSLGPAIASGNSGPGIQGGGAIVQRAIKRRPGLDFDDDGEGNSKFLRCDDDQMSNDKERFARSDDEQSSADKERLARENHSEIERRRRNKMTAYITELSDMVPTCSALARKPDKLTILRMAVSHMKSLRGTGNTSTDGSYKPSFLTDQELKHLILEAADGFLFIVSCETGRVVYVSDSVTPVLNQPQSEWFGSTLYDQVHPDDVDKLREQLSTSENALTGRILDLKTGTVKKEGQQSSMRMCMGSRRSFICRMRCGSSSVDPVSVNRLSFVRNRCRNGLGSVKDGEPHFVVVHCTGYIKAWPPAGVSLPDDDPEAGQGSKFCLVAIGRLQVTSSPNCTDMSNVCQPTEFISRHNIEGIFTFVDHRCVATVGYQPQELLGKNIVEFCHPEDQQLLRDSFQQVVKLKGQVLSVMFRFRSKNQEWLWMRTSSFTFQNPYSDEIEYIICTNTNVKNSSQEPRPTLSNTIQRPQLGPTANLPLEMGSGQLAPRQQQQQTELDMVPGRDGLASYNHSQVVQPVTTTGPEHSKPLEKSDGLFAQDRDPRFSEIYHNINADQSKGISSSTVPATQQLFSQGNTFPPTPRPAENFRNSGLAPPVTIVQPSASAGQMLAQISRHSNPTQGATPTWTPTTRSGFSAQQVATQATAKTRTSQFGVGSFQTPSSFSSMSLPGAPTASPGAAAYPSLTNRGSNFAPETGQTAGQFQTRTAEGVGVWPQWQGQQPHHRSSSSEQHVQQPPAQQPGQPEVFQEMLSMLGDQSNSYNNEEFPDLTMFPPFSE", "UniProt P53762": "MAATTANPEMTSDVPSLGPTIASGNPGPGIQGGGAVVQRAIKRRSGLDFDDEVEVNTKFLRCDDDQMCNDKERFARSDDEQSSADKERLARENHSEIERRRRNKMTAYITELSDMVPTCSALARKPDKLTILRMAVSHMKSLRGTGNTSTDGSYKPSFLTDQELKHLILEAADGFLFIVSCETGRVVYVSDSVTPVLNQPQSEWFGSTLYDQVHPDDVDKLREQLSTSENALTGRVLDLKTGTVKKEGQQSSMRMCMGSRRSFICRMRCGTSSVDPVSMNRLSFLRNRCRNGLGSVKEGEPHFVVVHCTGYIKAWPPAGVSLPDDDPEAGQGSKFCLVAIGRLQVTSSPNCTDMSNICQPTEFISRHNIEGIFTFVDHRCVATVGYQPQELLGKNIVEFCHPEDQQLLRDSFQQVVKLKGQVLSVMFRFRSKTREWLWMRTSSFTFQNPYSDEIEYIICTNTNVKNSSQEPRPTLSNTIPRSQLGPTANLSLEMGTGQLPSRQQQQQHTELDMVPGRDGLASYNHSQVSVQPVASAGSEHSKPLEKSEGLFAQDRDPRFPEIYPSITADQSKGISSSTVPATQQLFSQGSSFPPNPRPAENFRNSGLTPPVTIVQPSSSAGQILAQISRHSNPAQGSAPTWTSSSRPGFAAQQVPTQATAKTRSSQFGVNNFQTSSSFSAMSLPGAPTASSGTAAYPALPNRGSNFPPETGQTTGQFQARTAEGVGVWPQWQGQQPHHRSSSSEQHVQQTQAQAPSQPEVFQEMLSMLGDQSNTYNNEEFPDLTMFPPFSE", "UniProt P35869": "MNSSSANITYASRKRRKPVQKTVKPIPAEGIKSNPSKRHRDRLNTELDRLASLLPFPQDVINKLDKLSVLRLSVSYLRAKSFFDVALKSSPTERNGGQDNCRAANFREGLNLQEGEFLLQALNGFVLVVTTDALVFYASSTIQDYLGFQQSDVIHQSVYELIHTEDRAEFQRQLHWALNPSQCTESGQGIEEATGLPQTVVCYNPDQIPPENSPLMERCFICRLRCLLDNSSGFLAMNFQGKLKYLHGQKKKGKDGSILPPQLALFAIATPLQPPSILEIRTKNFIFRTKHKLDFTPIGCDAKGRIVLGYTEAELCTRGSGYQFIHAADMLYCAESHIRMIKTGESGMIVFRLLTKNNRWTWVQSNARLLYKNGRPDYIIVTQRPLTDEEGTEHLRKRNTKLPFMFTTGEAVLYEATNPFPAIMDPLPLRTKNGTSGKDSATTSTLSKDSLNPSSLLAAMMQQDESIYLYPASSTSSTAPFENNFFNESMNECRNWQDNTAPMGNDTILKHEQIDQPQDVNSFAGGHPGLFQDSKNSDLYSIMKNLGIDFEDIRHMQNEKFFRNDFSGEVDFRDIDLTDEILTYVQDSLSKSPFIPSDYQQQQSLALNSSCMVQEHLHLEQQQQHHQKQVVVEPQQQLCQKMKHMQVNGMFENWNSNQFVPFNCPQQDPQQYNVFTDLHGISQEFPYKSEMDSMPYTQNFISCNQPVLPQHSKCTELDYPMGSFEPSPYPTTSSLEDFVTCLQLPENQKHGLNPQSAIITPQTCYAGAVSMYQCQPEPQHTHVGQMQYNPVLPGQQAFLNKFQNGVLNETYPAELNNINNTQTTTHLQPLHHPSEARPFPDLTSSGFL", "UniProt P30561": "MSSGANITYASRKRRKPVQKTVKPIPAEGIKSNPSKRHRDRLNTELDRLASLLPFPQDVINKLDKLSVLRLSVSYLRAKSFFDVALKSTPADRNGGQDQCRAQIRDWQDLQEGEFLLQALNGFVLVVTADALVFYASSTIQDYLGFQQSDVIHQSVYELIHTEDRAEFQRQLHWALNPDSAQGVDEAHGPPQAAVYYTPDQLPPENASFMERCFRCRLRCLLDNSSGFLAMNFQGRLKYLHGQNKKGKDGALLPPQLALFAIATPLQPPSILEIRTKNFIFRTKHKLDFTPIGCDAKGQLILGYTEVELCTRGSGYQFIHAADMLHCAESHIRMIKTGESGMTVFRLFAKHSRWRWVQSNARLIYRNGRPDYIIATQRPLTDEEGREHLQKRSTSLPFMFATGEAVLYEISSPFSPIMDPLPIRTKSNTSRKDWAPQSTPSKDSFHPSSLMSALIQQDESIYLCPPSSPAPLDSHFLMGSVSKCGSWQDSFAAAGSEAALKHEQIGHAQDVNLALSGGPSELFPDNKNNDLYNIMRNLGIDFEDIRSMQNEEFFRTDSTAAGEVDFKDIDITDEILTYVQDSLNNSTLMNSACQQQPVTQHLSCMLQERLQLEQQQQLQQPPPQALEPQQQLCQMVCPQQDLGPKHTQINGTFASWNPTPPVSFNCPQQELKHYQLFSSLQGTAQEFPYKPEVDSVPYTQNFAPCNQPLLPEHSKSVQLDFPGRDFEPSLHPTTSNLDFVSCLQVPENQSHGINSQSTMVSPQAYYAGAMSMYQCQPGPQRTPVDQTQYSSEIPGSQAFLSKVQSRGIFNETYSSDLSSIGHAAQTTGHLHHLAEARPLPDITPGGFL"}, "source": "paper PMC7312509", "key": {"[1]": {"molecular_target": "human aryl hydrocarbon nuclear translocator (hARNT) (human) (UniProt P27540)", "experiment": "native gel or EMSA; in vitro synthesized AhR and ARNT translation mixtures and MEDGK buffer (25 mM MOPS pH 7.5, 1 mM EDTA, 1 mM dithiothreitol, 10% glycerol, 150 mM KCl) mixed 1:1:8, incubated with TCDD (20 nM), 1,2-NQ or 1,4-NQ (0.5 nM-1 uM) for 2 h at room temperature, then mixed with [32P]-labeled DRE3 oligonucleotide; inducible AhR:ARNT:DRE complex resolved by gel retardation; complex corrected for DMSO control"}, "[2]": {"molecular_target": "mouse aryl hydrocarbon nuclear translocator (mARNT) (mouse) (UniProt P53762)", "experiment": "native gel or EMSA; in vitro synthesized AhR and ARNT translation mixtures and MEDGK buffer (25 mM MOPS pH 7.5, 1 mM EDTA, 1 mM dithiothreitol, 10% glycerol, 150 mM KCl) mixed 1:1:8, incubated with TCDD (20 nM), 1,2-NQ or 1,4-NQ (0.5 nM-1 uM) for 2 h at room temperature, then mixed with [32P]-labeled DRE3 oligonucleotide; inducible AhR:ARNT:DRE complex resolved by gel retardation; complex corrected for DMSO control"}}, "note": "No constants are given. Whether binding was seen depends on the method and setting. Some results given as binding are weak or reduced against the parent protein; the word gives no strength.", "data": [{"substance": "human aryl hydrocarbon receptor (hAhR) (from UniProt P35869 1-848)", "values": [{"measurement": "binding", "setting": "[1]", "value": "binds"}]}, {"substance": "mouse aryl hydrocarbon receptor (mAhR) (from UniProt P30561 1-848)", "values": [{"measurement": "binding", "setting": "[2]", "value": "binds"}]}]}
